# Experimental data taken from PubChem BioAssay AID445 (National Center for Advancing Translational Sciences (NCATS), 2006).
# The list shows a part of the results. These are further read-outs of the screen, such as a control signal, another cell line or another target. No call is given for them. The list favours compounds with an active or inconclusive main result. Potencies come from curve fits of mixed quality, noted in brackets.
# Assay: IkB Signaling
# Details: ABC-DLBCL IkBa-CBG/CBR dual luciferase ratio (green luciferase fused to IkBa over red control in OCI-Ly3 lymphoma cells), 4 h; measured here: control luc red channel unless noted
# Outline: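 Luminescence ratio of IκBα-fused green versus native red beetle luciferase in OCI-Ly3 cells, 4 h post-doxycycline with compound; red signal alone, scaled from basal (0%) to zero light (-100%), flagged nonspecific or cytotoxic effects.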
row,SMILES,AC50
1,O=C(CSc1nc2c(c(=O)[nH]1)CN(Cc1ccc3c(c1)OCO3)CC2)Nc1cccc(Cl)c1,"25.1 µM [falling, single point]"
2,CS(=O)(=O)c1ncc(Cl)c(C(=O)Nc2ccc(N3CCOCC3)cc2)n1,"3.16 µM [falling, full curve]"
3,Cn1nnc2c(NCc3ccccc3Cl)ncnc21,"39.8 µM [falling, single point]"
4,COc1ccccc1-n1cnc2cc(NS(=O)(=O)c3ccccc3)ccc21,"31.6 µM [falling, single point]"
5,Cc1nc2c(c(C)nn2-c2ccccc2)c(C)c1CCC(=O)NCCc1ccccc1,"5.01 µM [falling, full curve, poor fit]"
6,COc1ccc(CC(=O)NCc2nc3cccnc3n2Cc2ccc(C)cc2)cc1OC,"6.31 µM [rising, partial curve]"
7,Cc1cccc(Cn2cc3c(=O)n(CC(=O)Nc4ccc(C)c(F)c4)nc-3c3cc(F)ccc32)c1,"20 µM [falling, single point]"
8,COc1ccc(S(=O)(=O)N(Cc2ccccc2)Cc2nc3ccccc3c(=O)[nH]2)cc1,"39.8 µM [falling, single point]"
9,CCc1cccc(NS(=O)(=O)c2c(C)nc3sc(CC)nn3c2=O)c1,"31.6 µM [falling, single point]"
10,COc1ccc(S(=O)(=O)Cc2ccc(C(=O)N3CCN(c4cccc(C)c4)C(C)C3)o2)cc1 (configuration not stated),"25.1 µM [falling, partial curve]"
11,Cc1ccc(NC(=O)Cn2c(=O)n(CCc3ccccc3)c(=O)c3c4c(sc32)CCCC4)c(C)c1,"39.8 µM [falling, single point]"
12,Cc1ccc(N2CC(NC(=O)c3ccc(S(=O)(=O)N4CCCCC4)cc3)CC2=O)cc1 (configuration not stated),"6.31 µM [falling, single point]"
13,COC(=O)c1ccc(NC(=O)c2cc(=O)c3ccc(C)cc3o2)cc1,"0.00631 µM [rising, full curve]"
14,CCCCn1c(=O)n(Cc2cccc(F)c2)c(=O)c2c1ncn2Cc1ccco1,"39.8 µM [falling, single point]"
15,CCOc1ccc(-c2nonc2NC(=O)c2oc3ccc(Br)cc3c2C)cc1,"2 µM [falling, full curve]"
16,Cc1ccc(N2CC(NC(=O)Cc3cccs3)CC2=O)cc1C (configuration not stated),"6.31 µM [rising, single point]"
17,CCOC(=O)N1CCc2c(sc(NCc3cccc(F)c3)c2C(=O)Nc2ccccc2OCC)C1,"15.8 µM [falling, single point]"
18,CCCCOc1ccccc1C1C(C(=O)OC)=CN(CC)C=C1C(=O)OC,"12.6 µM [falling, partial curve]"
19,COc1ccc2c(c1)CCc1c(C(=O)Nc3ccc(F)c(Cl)c3)noc1-2,"0.0631 µM [falling, full curve]"
20,CCc1nc2ccc(C(=O)N3CCN(c4ccccc4)CC3)cc2nc1CC,"3.16 µM [rising, partial curve, poor fit]"
21,Cc1ccc(CNC(=O)c2cc3c(s2)-c2ccccc2SC3)cc1,"10 µM [falling, partial curve]"

# Of the compounds above, 4 have fluorine:
row,SMILES,AC50
7,Cc1cccc(Cn2cc3c(=O)n(CC(=O)Nc4ccc(C)c(F)c4)nc-3c3cc(F)ccc32)c1,"20 µM [falling, single point]"
14,CCCCn1c(=O)n(Cc2cccc(F)c2)c(=O)c2c1ncn2Cc1ccco1,"39.8 µM [falling, single point]"
17,CCOC(=O)N1CCc2c(sc(NCc3cccc(F)c3)c2C(=O)Nc2ccccc2OCC)C1,"15.8 µM [falling, single point]"
19,COc1ccc2c(c1)CCc1c(C(=O)Nc3ccc(F)c(Cl)c3)noc1-2,"0.0631 µM [falling, full curve]"

# Shown with tabs: entries from further up.
row	SMILES	AC50
3	Cn1nnc2c(NCc3ccccc3Cl)ncnc21	39.8 µM [falling, single point]
21	Cc1ccc(CNC(=O)c2cc3c(s2)-c2ccccc2SC3)cc1	10 µM [falling, partial curve]

# Next part

row,SMILES,AC50
1,COc1ccc(Cl)cc1NC(=O)CCS(=O)(=O)c1nc(-c2cccs2)cc(C(F)(F)F)n1,"3.16 µM [falling, full curve]"
2,CC(C)COc1ccc(C(=O)Nc2cccc(-c3nc4ccccc4[nH]3)c2)cc1,"15.8 µM [falling, partial curve]"
3,COc1ccccc1-c1cc2nc(C)c(CCC(=O)Nc3ccc(Br)c(C)c3)c(C)n2n1,"1 µM [falling, full curve]"
4,CCOc1ccc2[nH]c(=O)c(CN(Cc3ccco3)C(CC)c3nnnn3Cc3ccccc3)cc2c1 (configuration not stated),"25.1 µM [falling, partial curve]"
5,CC(C)N(C(=O)CSc1nc2ccc(Cl)cc2[nH]1)c1ccccc1,"15.8 µM [falling, partial curve]"
6,COc1ccccc1CNC(=O)CCC1N=C2c3ccccc3N=C(SCc3cccc(Cl)c3)N2C1=O (configuration not stated),"20 µM [falling, partial curve]"
7,O=C(Nc1ccccc1C(=O)O)c1cccc(NC(=O)c2ccc(Br)o2)c1,"15.8 µM [falling, partial curve]"
8,COc1ccc(-c2cc3nc(-c4ccc(C)cc4)cc(C(F)(F)F)n3n2)cc1,"0.01 µM [rising, full curve, poor fit]"
9,COc1ccc(S(=O)(=O)N(CCc2ccccc2)CC(=O)Nc2ccc(C)c(C)c2)cc1OC,"12.6 µM [falling, partial curve]"
10,C[C@@H](NCc1cc(Br)cc2[nH]c(=O)c(=O)[nH]c12)P(=O)(O)O,"12.6 µM [rising, partial curve]"
11,CCOc1cc(-c2nnc(SCC(=O)Nc3ccc(F)c(F)c3)nc2-c2ccc(OC)c(OCC)c2)ccc1OC,"3.16 µM [falling, full curve]"
12,O=C(Nc1cccc(-c2nc3ccccc3o2)c1)c1ccc(-c2ccc(Br)cc2)o1,"5.01 µM [falling, full curve]"
13,O=S(=O)(Nc1ccc(-c2ccc(N3CCCC3)nn2)cc1)c1ccc(Cl)cc1,"0.631 µM [falling, full curve, poor fit]"
14,COc1ccc(Cc2nc3ccccc3[nH]c2=O)cc1,"0.0316 µM [rising, full curve, poor fit]"
15,C=Cc1ccc(Cn2c(C)c(CNCc3cccc(Br)c3)c(C(=O)O)c2C)cc1,"25.1 µM [falling, single point]"
16,Cc1cccc(Cn2c(CNS(=O)(=O)c3ccc4c(c3)CCCC4)nc3cccnc32)c1,"15.8 µM [falling, partial curve]"
17,Cc1c(Cl)cccc1-c1ccc(C(=O)Nc2ccc(F)cc2)o1,"15.8 µM [falling, partial curve]"
18,CN(C1=NC(=O)C(CC(=O)Nc2ccc(Br)cc2)S1)c1ccc(O)cc1 (configuration not stated),"10 µM [falling, partial curve]"
19,CCOc1ccc(-c2cccc(NS(=O)(=O)c3c(C)cc(C)cc3C)c2)nn1,"15.8 µM [falling, partial curve]"
20,COc1ccccc1OCC(=O)NCC(c1ccc(Cl)cc1)N1CCCCC1 (configuration not stated),"25.1 µM [falling, single point]"
21,CCOc1ccc(-c2nnc(-c3cccs3)o2)cc1OCC,"0.158 µM [rising, full curve, poor fit]"

row,SMILES,AC50
1,[O-][n+]1onc2c1CCc1c-2nn(-c2ccccc2Cl)[n+]1[O-],"15.8 µM [falling, partial curve]"
2,Cc1c(Cl)cccc1NC(=O)Cn1c(CCC(=O)O)ccc1-c1cccs1,"25.1 µM [falling, single point]"
3,CCOC(=O)c1c(NC(C)=O)c2c3c(sc2n1Cc1nc(-c2cccc(Cl)c2)oc1C)CCCC3,"0.126 µM [falling, single point]"
4,CC(C)(C)OC(=O)N1CCC(c2c(C(=O)N3CCCCC3)cnn2-c2ccc(Cl)cc2)CC1,"25.1 µM [falling, single point]"
5,COc1ccc(N2CC(NC(=O)COc3ccccc3)CC2=O)cc1OC (configuration not stated),"1.58 µM [rising, partial curve]"
6,CCOC(=O)c1cnc2ccc(OC)cc2c1NCCc1ccccc1,"25.1 µM [falling, partial curve]"
7,CN(c1ncnc2onc(-c3cccc(Cl)c3)c12)C1CCCCC1,"10 µM [falling, partial curve]"
8,CCN=c1scc(-c2ccc3c(c2)NC(=O)CO3)n1N=C1CCCC1,"10 µM [falling, partial curve]"
9,CCOC(=O)C1CCCN(C(=O)c2nn(-c3ccc(OC)cc3)c(=O)c3c2c2ccccc2n3C)C1 (configuration not stated),"0.158 µM [rising, full curve, poor fit]"
10,COc1cc(Cl)c(C)cc1NC(=O)CSc1nnc(-c2ccco2)n1CC(C)C,"15.8 µM [falling, partial curve]"
11,CCc1cccc(NC(=O)C2CCN(C(=O)c3cnn(-c4ccccc4)c3-n3cccc3)CC2)c1,"15.8 µM [falling, partial curve]"
12,Nc1nc(Nc2ccccc2F)sc1C(=O)c1ccc(Cl)cc1,"25.1 µM [falling, single point]"
13,CCc1ccc(-n2nc(C)c3c(C)cc(=O)n(CC(=O)N4CCCc5ccccc54)c32)cc1,"12.6 µM [falling, partial curve]"
14,O=C(CSc1nc2c([nH]c3ccccc32)c(=O)n1-c1ccc(F)cc1)N1CCCCC1,"2.51 µM [rising, full curve]"
15,CCc1ccc(OCC(=O)N(Cc2ccc(Cl)cc2)C2CCS(=O)(=O)C2)cc1 (configuration not stated),"31.6 µM [falling, single point]"
16,CCOC(=O)c1oc2c(c1C)-c1nn(Cc3ccc(Cl)cc3)cc1CC2,"39.8 µM [falling, partial curve]"
17,CCC(C)NC(=O)Cn1c(=O)cc(-c2ccccc2)c2c(C)nn(C)c21 (configuration not stated),"15.8 µM [rising, partial curve, poor fit]"
18,Cn1c(NCCO)nc2c1c(=O)n(Cc1ccccc1Cl)c(=O)n2C,"3.16 µM [falling, partial curve, poor fit]"
19,O=C(CCc1nc(-c2ccccc2F)no1)Nc1ccc(Oc2ccccc2)cc1,"12.6 µM [falling, partial curve]"
20,COc1ccc(C2c3c(oc4ccc(F)cc4c3=O)C(=O)N2Cc2ccc3c(c2)OCO3)cc1 (configuration not stated),"5.01 µM [rising, full curve, poor fit]"
